According to doi:10.1101/2022.11.02.514974:

Experiments:
[1] = target: T1, full length WhiA (B. subtilis) (UniProt O06975); assay: two-hybrid
T1 sequence: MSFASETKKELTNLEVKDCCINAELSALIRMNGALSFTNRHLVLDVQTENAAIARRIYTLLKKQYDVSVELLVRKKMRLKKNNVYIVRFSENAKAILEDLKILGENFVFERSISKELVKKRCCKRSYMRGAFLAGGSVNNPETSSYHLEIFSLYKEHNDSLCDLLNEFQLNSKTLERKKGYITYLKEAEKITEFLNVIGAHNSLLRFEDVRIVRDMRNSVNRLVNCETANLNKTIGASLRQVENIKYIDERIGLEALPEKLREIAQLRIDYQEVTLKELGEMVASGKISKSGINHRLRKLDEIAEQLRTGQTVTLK

[2] = target: T2, WhiA N-terminal domain (amino acids 1-227) (B. subtilis) (UniProt O06975); assay: two-hybrid
T2 sequence: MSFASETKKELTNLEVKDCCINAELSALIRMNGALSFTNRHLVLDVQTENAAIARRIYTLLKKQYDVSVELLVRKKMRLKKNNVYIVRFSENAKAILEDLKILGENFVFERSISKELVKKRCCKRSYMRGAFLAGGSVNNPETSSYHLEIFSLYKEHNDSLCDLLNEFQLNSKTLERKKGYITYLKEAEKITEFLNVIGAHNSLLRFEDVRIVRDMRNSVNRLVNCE

binding [1]: binds | binding [2]: binds
Substance: YrhJ (B. subtilis)

These are yes or no findings as the source states them, for the method shown. Binding calls can cover weak binding; strength is not graded here.
